{"source": "PubChem BioAssay AID1259331 (Drosophila RNAi Screening Center, 2017)", "test": "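Knock-downs that alter ATP level after a high zinc chloride dose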 (primary screen)", "cells": "Drosophila S2R+ cells", "knock-down reagent": "long dsRNA against Drosophila genes", "time to read-out": "5 days (4 days knock-down, then 1 day zinc)", "challenge": "zinc chloride at 15 mM final level for 1 day", "detection": "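Total cellular ATP measured by luciferase luminescence as a viability proxy, turned into Z scores from three plate copies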", "reading the numbers": "mean Z score: higher = more ATP than other wells, better survival under zinc; ATP luminescence: higher = more ATP, more viable cells", "hit rule": "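Hit when the absolute Z score is greater than 1.5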", "calls": "active = hit, ATP up or down; inactive = not a hit", "note": "The whole screen tested about 3,100 reagents; below is a random part of them. 126 of them (4.1%) count as active. 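Calls are per reagent; zinc was so toxic that few knock-downs lowered ATP further, so most hits raise ATP.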 Raw values are not corrected between plates. Reagent sequences are not shown. Not stated in the record: the amount of reagent."}
{"Target gene":"CG15531 (GeneID 43592)","DRSC id":"DRSC15068","mean Z score":0.608,"ATP luminescence, replicate 1":72894,"ATP luminescence, replicate 2":79429,"call":"inactive"}
{"Target gene":"AstC-R2 (GeneID 40019)","DRSC id":"DRSC23467","mean Z score":0.0559,"ATP luminescence, replicate 1":53910,"ATP luminescence, replicate 2":53121,"call":"inactive"}
{"Target gene":"AstC-R2 (GeneID 40019)","DRSC id":"DRSC39469","mean Z score":-0.239,"ATP luminescence, replicate 1":47475,"ATP luminescence, replicate 2":45285,"call":"inactive"}
{"Target gene":"CCKLR-17D1 (GeneID 32860)","DRSC id":"DRSC20011","mean Z score":-0.422,"ATP luminescence, replicate 1":37656,"ATP luminescence, replicate 2":37827,"call":"inactive"}
{"Target gene":"CCKLR-17D1 (GeneID 32860)","DRSC id":"DRSC20012","mean Z score":-0.447,"ATP luminescence, replicate 1":38192,"ATP luminescence, replicate 2":35300,"call":"inactive"}
{"Target gene":"CCKLR-17D1 (GeneID 32860)","DRSC id":"DRSC28081","mean Z score":-0.226,"ATP luminescence, replicate 1":58711,"ATP luminescence, replicate 2":51580,"call":"inactive"}

The list goes on, starting with the last 2 of the part before.
{"Target gene":"CCKLR-17D1 (GeneID 32860)","DRSC id":"DRSC20012","mean Z score":-0.447,"ATP luminescence, replicate 1":38192,"ATP luminescence, replicate 2":35300,"call":"inactive"}
{"Target gene":"CCKLR-17D1 (GeneID 32860)","DRSC id":"DRSC28081","mean Z score":-0.226,"ATP luminescence, replicate 1":58711,"ATP luminescence, replicate 2":51580,"call":"inactive"}
{"Target gene":"Stt3A (GeneID 33082)","DRSC id":"DRSC20514","mean Z score":-0.196,"ATP luminescence, replicate 1":43924,"ATP luminescence, replicate 2":42902,"call":"inactive"}
{"Target gene":"Stt3A (GeneID 33082)","DRSC id":"DRSC24884","mean Z score":-0.265,"ATP luminescence, replicate 1":51666,"ATP luminescence, replicate 2":63063,"call":"inactive"}
{"Target gene":"Syx16 (GeneID 33034)","DRSC id":"DRSC20507","mean Z score":-0.212,"ATP luminescence, replicate 1":43485,"ATP luminescence, replicate 2":44891,"call":"inactive"}
{"Target gene":"Syx16 (GeneID 33034)","DRSC id":"DRSC27163","mean Z score":0.0756,"ATP luminescence, replicate 1":60495,"ATP luminescence, replicate 2":59432,"call":"inactive"}
{"Target gene":"CG4576 (GeneID 41914)","DRSC id":"DRSC15604","mean Z score":-0.527,"ATP luminescence, replicate 1":33679,"ATP luminescence, replicate 2":51029,"call":"inactive"}
{"Target gene":"CG4576 (GeneID 41914)","DRSC id":"DRSC26364","mean Z score":-0.101,"ATP luminescence, replicate 1":54126,"ATP luminescence, replicate 2":50035,"call":"inactive"}
{"Target gene":"SK (GeneID 31456)","DRSC id":"DRSC17387","mean Z score":-0.505,"ATP luminescence, replicate 1":64709,"ATP luminescence, replicate 2":66719,"call":"inactive"}
{"Target gene":"SK (GeneID 31456)","DRSC id":"DRSC17887","mean Z score":0.265,"ATP luminescence, replicate 1":41633,"ATP luminescence, replicate 2":42491,"call":"inactive"}
{"Target gene":"SK (GeneID 31456)","DRSC id":"DRSC17888","mean Z score":-0.37,"ATP luminescence, replicate 1":59792,"ATP luminescence, replicate 2":60049,"call":"inactive"}
{"Target gene":"SK (GeneID 31456)","DRSC id":"DRSC27622","mean Z score":-0.0109,"ATP luminescence, replicate 1":57151,"ATP luminescence, replicate 2":58716,"call":"inactive"}
